Experimental data published in the supplement of paper PMC8728848.
The list shows a part of the results.

Legend:
Experiment in all cases: glycan array binding signal (z-score within array); higher = stronger binding
Conditions in all cases: glycan notation: IUPAC condensed, linker removed
[1] = molecular target: Gal(b1-3)GlcNAc(b1-3)Gal(b1-4)GlcNAc(b1-2)Man(a1-3)[Gal(b1-3)GlcNAc(b1-3)Gal(b1-4)GlcNAc(b1-2)Man(a1-6)]Man(b1-4)GlcNAc(b1-4)GlcNAc
Summary of the method: (§1)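 Glycan array data came from 3228 arrays in the Consortium for Functional Glycomics database, and only arrays with an available protein sequence were kept. Glycan names were put into IUPAC-condensed notation, and columns mapping to the same glycan were averaged. The binding signal is a within-array Z-score, averaged across arrays of one protein sequence run at different concentrations or buffers and across linkers. A negative Z-score can be read as non-binding.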

[2] = molecular target: Gal(b1-3)GlcNAc(b1-3)Gal(b1-4)GlcNAc(b1-2)[Gal(b1-3)GlcNAc(b1-3)Gal(b1-4)GlcNAc(b1-6)]Man(a1-6)[Gal(b1-3)GlcNAc(b1-3)Gal(b1-4)GlcNAc(b1-2)Man(a1-3)]Man(b1-4)GlcNAc(b1-4)[Fuc(a1-6)]GlcNAc
Summary of the method: as §1

[3] = molecular target: Gal(b1-3)GlcNAc(b1-3)Gal(b1-4)GlcNAc(b1-3)Gal(b1-4)GlcNAc(b1-2)[Gal(b1-3)GlcNAc(b1-3)Gal(b1-4)GlcNAc(b1-3)Gal(b1-4)GlcNAc(b1-6)]Man(a1-6)[Gal(b1-3)GlcNAc(b1-3)Gal(b1-4)GlcNAc(b1-3)Gal(b1-4)GlcNAc(b1-2)Man(a1-3)]Man(b1-4)GlcNAc(b1-4)[Fuc(a1-6)]GlcNAc
Summary of the method: as §1

[4] = molecular target: Gal(b1-3)GlcNAc(b1-3)Gal(b1-4)GlcNAc(b1-6)[Gal(b1-3)GlcNAc(b1-3)]Gal(b1-4)Glc
Summary of the method: as §1

[5] = molecular target: Gal(b1-3)GlcNAc(b1-3)Gal(b1-4)[Fuc(a1-3)]GlcNAc
Summary of the method: as §1

[6] = molecular target: Gal(b1-3)GlcNAc(b1-3)Gal(b1-4)[Fuc(a1-3)]GlcNAc(b1-6)[Gal(b1-3)GlcNAc(b1-3)]Gal(b1-4)Glc
Summary of the method: as §1

[7] = molecular target: Gal(b1-3)GlcNAc(b1-3)GalNAc
Summary of the method: as §1

[8] = molecular target: Gal(b1-3)GlcNAc(b1-6)Gal(b1-4)GlcNAc
Summary of the method: as §1

[9] = molecular target: Gal(b1-3)GlcNAc(b1-6)GalNAc
Summary of the method: as §1

[10] = molecular target: Gal(b1-3)GlcNAc(b1-6)[Gal(b1-3)]GalNAc
Summary of the method: as §1

[11] = molecular target: Gal(b1-3)GlcNAc6S
Summary of the method: as §1

[12] = molecular target: Gal(b1-3)[Fuc(a1-4)]GlcNAc
Summary of the method: as §1

[13] = molecular target: Gal(b1-3)[Fuc(a1-4)]GlcNAc(b1-2)Man
Summary of the method: as §1

[14] = molecular target: Gal(b1-3)[Fuc(a1-4)]GlcNAc(b1-2)Man(a1-3)[Gal(b1-3)[Fuc(a1-4)]GlcNAc(b1-2)Man(a1-6)]Man(b1-4)GlcNAc(b1-4)[Fuc(a1-6)]GlcNAc
Summary of the method: as §1

[15] = molecular target: Gal(b1-3)[Fuc(a1-4)]GlcNAc(b1-3)Gal(b1-3)[Fuc(a1-4)]GlcNAc
Summary of the method: as §1

[16] = molecular target: Gal(b1-3)[Fuc(a1-4)]GlcNAc(b1-3)Gal(b1-4)[Fuc(a1-3)]GlcNAc
Summary of the method: as §1

[17] = molecular target: Gal(b1-3)[Fuc(a1-4)]GlcNAc(b1-6)GalNAc
Summary of the method: as §1

[18] = molecular target: Gal(b1-3)[GlcNAc(b1-6)]GalNAc
Summary of the method: as §1

[19] = molecular target: Gal(b1-3)[Neu5Ac(a2-6)]GalNAc
Summary of the method: as §1

[20] = molecular target: Gal(b1-3)[Neu5Ac(a2-6)]GlcNAc(b1-4)Gal(b1-4)Glc
Summary of the method: as §1

[21] = molecular target: Gal(b1-3)[Neu5Ac(b2-6)]GalNAc
Summary of the method: as §1

[22] = molecular target: Gal(b1-4)Gal
Summary of the method: as §1

[23] = molecular target: Gal(b1-4)GalNAc(a1-3)[Fuc(a1-2)]Gal(b1-4)GlcNAc
Summary of the method: as §1

[24] = molecular target: Gal(b1-4)GalNAc(b1-3)[Fuc(a1-2)]Gal(b1-4)GlcNAc
Summary of the method: as §1

[25] = molecular target: Gal(b1-4)Glc
Summary of the method: as §1

[26] = molecular target: Gal(b1-4)Glc6S
Summary of the method: as §1

[27] = molecular target: Gal(b1-4)GlcNAc
Summary of the method: as §1

[28] = molecular target: Gal(b1-4)GlcNAc(a1-6)Gal(b1-4)GlcNAc
Summary of the method: as §1

[29] = molecular target: Gal(b1-4)GlcNAc(b1-2)Man
Summary of the method: as §1

[30] = molecular target: Gal(b1-4)GlcNAc(b1-2)Man(a1-3)Man(b1-4)GlcNAc(b1-4)GlcNAc
Summary of the method: as §1

[31] = molecular target: Gal(b1-4)GlcNAc(b1-2)Man(a1-3)[Gal(b1-4)GlcNAc(b1-2)Man(a1-6)]Man(b1-4)GlcNAc(b1-4)GlcNAc
Summary of the method: as §1

[32] = molecular target: Gal(b1-4)GlcNAc(b1-2)Man(a1-3)[Gal(b1-4)GlcNAc(b1-2)Man(a1-6)]Man(b1-4)GlcNAc(b1-4)[Fuc(a1-6)]GlcNAc
Summary of the method: as §1

[33] = molecular target: Gal(b1-4)GlcNAc(b1-2)Man(a1-3)[Gal(b1-4)GlcNAc(b1-2)Man(a1-6)][Gal(b1-4)GlcNAc(b1-4)]Man(b1-4)GlcNAc(b1-4)[Fuc(a1-6)]GlcNAc
Summary of the method: as §1

[34] = molecular target: Gal(b1-4)GlcNAc(b1-2)Man(a1-3)[Gal(b1-4)GlcNAc(b1-2)Man(a1-6)][GlcNAc(b1-4)]Man(b1-4)GlcNAc(b1-4)[Fuc(a1-6)]GlcNAc
Summary of the method: as §1

[35] = molecular target: Gal(b1-4)GlcNAc(b1-2)Man(a1-3)[GlcNAc(b1-2)Man(a1-6)]Man(b1-4)GlcNAc(b1-4)GlcNAc
Summary of the method: as §1

[36] = molecular target: Gal(b1-4)GlcNAc(b1-2)Man(a1-3)[GlcNAc(b1-4)][Gal(b1-4)GlcNAc(b1-2)Man(a1-6)]Man(b1-4)GlcNAc(b1-4)GlcNAc
Summary of the method: as §1

[37] = molecular target: Gal(b1-4)GlcNAc(b1-2)Man(a1-3)[Man(a1-6)]Man(b1-4)GlcNAc(b1-4)GlcNAc
Summary of the method: as §1

[38] = molecular target: Gal(b1-4)GlcNAc(b1-2)Man(a1-6)Man(b1-4)GlcNAc(b1-4)GlcNAc
Summary of the method: as §1

B1: LlpA (Burkholderia cenocepacia) (protein)
chain: MGSSHHHHHHSSGLVPRGSHKILGSNETLSAGNVVYSDNGQYHLAMQTDGNLVVYGPTGAVWQSQTSGSGGNRAVMQGDGNLVIYRADNTAAWSSKTAHPGAFLAVQDDGNVVIYWPRPAWASNTSDPATQQSAESKYLASGSTMSAGQTVTVAQYMLVFQADGNLVLYKNGGNPIWSTGTQGKGATYAVMQSDGNFVIYAGSTALWSTKTNGANGAQLVLQSDGNLVIYAPTAAWSTKFGLVTAPTSTSTSNNGPGSGICVGVCPPHPLNGNPFSPVGVGTTGLGFPTPGYPGAAF
[1]
  glycan array binding signal (z-score): 0.669
[2]
  glycan array binding signal (z-score): 1.84
[3]
  glycan array binding signal (z-score): 0.703
[4]
  glycan array binding signal (z-score): 1.7
[5]
  glycan array binding signal (z-score): 0.291
[6]
  glycan array binding signal (z-score): -1.08
[7]
  glycan array binding signal (z-score): -0.215
[8]
  glycan array binding signal (z-score): -0.616
[9]
  glycan array binding signal (z-score): -0.529
[10]
  glycan array binding signal (z-score): -1.18
[11]
  glycan array binding signal (z-score): -0.484
[12]
  glycan array binding signal (z-score): -0.599
[13]
  glycan array binding signal (z-score): 0.67
[14]
  glycan array binding signal (z-score): 1.25
[15]
  glycan array binding signal (z-score): -0.229
[16]
  glycan array binding signal (z-score): 0.651
[17]
  glycan array binding signal (z-score): -0.203
[18]
  glycan array binding signal (z-score): 0.32
[19]
  glycan array binding signal (z-score): -1.02
[20]
  glycan array binding signal (z-score): 0.368
[21]
  glycan array binding signal (z-score): -0.687
[22]
  glycan array binding signal (z-score): -0.293
[23]
  glycan array binding signal (z-score): -0.49
[24]
  glycan array binding signal (z-score): -0.789
[25]
  glycan array binding signal (z-score): 0.078
[26]
  glycan array binding signal (z-score): -0.132
[27]
  glycan array binding signal (z-score): -1.08
[28]
  glycan array binding signal (z-score): -0.352
[29]
  glycan array binding signal (z-score): 1.06
[30]
  glycan array binding signal (z-score): 1.84
[31]
  glycan array binding signal (z-score): -0.66
[32]
  glycan array binding signal (z-score): 0.328
[33]
  glycan array binding signal (z-score): -1.76
[34]
  glycan array binding signal (z-score): -1.76
[35]
  glycan array binding signal (z-score): -0.43
[36]
  glycan array binding signal (z-score): -0.313
[37]
  glycan array binding signal (z-score): -0.544
[38]
  glycan array binding signal (z-score): 1.36
